Measurements: publication PMC7862700
This is a selection; strong and weak results do not stand in their true shares. At the low end of the ranking the order means little.

The sequences below were run against T1, ELF3 (UniProt P78545) (assay: DAPPL (digital affinity profiling via proximity ligation, sequencing)). Details: 10 mM Tris-HCl pH 7.5, 50 mM NaCl, 1 mM DTT, 4% glycerol, room temperature, 30 min; GST-TFs on glutathione beads, 16-mer random dsDNA library, 0.1% …; high values mean tight binding; double strand, one strand shown; scale: fold enrichment (6-mer frequency, TF over GST control).
T1 sequence: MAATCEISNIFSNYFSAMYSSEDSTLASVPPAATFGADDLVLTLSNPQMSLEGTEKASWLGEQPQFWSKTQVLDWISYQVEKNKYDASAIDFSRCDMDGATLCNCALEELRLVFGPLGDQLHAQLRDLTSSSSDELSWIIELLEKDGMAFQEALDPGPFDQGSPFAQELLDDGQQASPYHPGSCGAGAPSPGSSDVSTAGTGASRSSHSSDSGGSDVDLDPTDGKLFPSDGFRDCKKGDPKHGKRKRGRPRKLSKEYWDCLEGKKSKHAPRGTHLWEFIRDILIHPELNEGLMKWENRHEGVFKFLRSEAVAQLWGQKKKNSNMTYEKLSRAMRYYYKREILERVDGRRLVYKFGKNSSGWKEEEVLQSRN
Work on GAAATT yielded a binding signal of 1.44.
For CCTTGC, the binding signal was 1.49.
Sequence AAGTAG has a binding signal of 1.31.
In the case of CGTCAC, the binding signal is reported as 1.21.
Sequence ATATAA has a binding signal of 1.28.
Work on TGCATT yielded a binding signal of 1.49.
With GGGCTC the binding signal was 1.19.
TTGTTT was tested, and the binding signal was 1.61.
TTGGCA was tested, and the binding signal was 1.07.
CGCTGC showed a binding signal of 1.03.
Work on TCAAGC yielded a binding signal of 1.04.
With GCTTGT the binding signal was 1.09.
With CACTAG the binding signal was 0.961.
Sequence GACCGG has a binding signal of 1.14.
With TACAGC the binding signal was 1.16.
For TGCCTA, the binding signal was 0.991.
Sequence CTACAA has a binding signal of 1.03.
In the case of CACCCT, the binding signal is reported as 1.08.
In the case of GAAACG, the binding signal is reported as 1.27.
CAACGC showed a binding signal of 0.985.
GTAGCA showed a binding signal of 1.01.
With CATTAA the binding signal was 1.05.
In the case of ATATTT, the binding signal is reported as 1.54.
TATCTG showed a binding signal of 0.986.
TTCCTA showed a binding signal of 1.84.
CTGTCC was tested, and the binding signal was 1.17.
TAAAAA showed a binding signal of 1.33.
For ACCTTC, the binding signal was 1.95.
Sequence TGGCGA has a binding signal of 0.892.
Sequence ACGTTT has a binding signal of 1.08.
ATTGCA was tested, and the binding signal was 1.13.
Sequence CCCGTA has a binding signal of 1.14.
For ACCCTC, the binding signal was 1.12.
CATGTA was tested, and the binding signal was 1.03.
Work on TATACC yielded a binding signal of 1.12.
With CAACGA the binding signal was 1.08.
AGTGTA was tested, and the binding signal was 0.96.
For AGTGCC, the binding signal was 0.939.
In the case of AGGGAA, the binding signal is reported as 1.01.
